Results of single-concentration screens

The chains behind the UniProt entries cited, without tags or fusion partners. Residues count along the entry.
UniProt Q4DA54, 1-478: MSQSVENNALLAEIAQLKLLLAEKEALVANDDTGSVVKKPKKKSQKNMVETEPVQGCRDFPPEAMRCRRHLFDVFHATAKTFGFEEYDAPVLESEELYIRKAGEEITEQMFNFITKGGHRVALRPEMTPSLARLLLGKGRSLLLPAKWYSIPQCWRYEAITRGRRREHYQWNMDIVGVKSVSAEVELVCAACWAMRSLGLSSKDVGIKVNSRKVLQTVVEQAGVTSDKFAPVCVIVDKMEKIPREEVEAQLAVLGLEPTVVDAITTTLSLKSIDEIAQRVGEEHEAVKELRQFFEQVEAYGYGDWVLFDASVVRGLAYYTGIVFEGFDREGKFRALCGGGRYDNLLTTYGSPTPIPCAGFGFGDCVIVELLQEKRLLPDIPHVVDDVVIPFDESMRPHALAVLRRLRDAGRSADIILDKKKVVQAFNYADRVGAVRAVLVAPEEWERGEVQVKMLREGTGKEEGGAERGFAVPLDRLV

Measurements from “University of Dundee, Small-Polar-MMV Screening Library” (2021), ChEMBL document CHEMBL3988442.

Values are the deposited “Percent Effect”, in %. The record does not define 0% and 100%; most values in the screen are far below 50% and negative numbers occur (in some assays of this library far below -100). The compounds are a random part of those screened. A dash means the value is not listed here; it may have been measured.

Toxoplasma: 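Assay of Toxoplasma gondii numbers, read through their beta-galactosidase reporter with a colour substrate. Concentration: 10 µM. Higher reads as fewer parasites (inferred from which compounds were picked for retests). About 67,000 compounds were tested under these conditions; 0.38% (about 260) showed 50% or more at least once.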
TcHisRS: 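Histidine-tRNA ligase, Trypanosoma cruzi CL Brener (UniProt Q4DA54). Enzyme assay of histidyl-tRNA synthetase; the read-out is not stated. Tested at 30 µM. Direction is inferred from retests: higher values go with stronger inhibition. About 69,000 compounds were tested under these conditions; 0.045% (about 31) showed 50% or more at least once.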

Result for O=C(O)C(F)(F)F.[H][C@@]12OCCC[C@]1([H])N(C(=O)c1cccn1C)C[C@H]2OCc1ccncc1 was Toxoplasma: 96.07%. For [H][C@]12CC[C@]([H])(CN(Cc3coc(C)n3)C1)N(CC=C(C)C)C2 the result was Toxoplasma: 4.793%. With Cc1occc1C(=O)N1C[C@@H](OCc2cccnc2)[C@H]2OCCC[C@@H]21 the screen gave TcHisRS: -4.878%. Result for Cn1cc(NC(=O)N2CCC(NS(C)(=O)=O)CC2)ccc1=O was Toxoplasma: 1.579%; TcHisRS: 28.24%. NCCc1nc(N(Cc2nccs2)C2CC2)c2ccccc2n1 read Toxoplasma: -10.92%; TcHisRS: -1.235%. Result for CC1(C)CN(C(CNC2=NCCN2)c2ccc(Cl)cc2)CCO1.I (stereo not given) was Toxoplasma: 5.202%. CCN1Cc2c(C(=O)NC)ncn2-c2ccccc2S1(=O)=O gave Toxoplasma: -25.44%; TcHisRS: -2.956%.

For Cc1csc(C(Cc2ccsc2)NC(=O)CN(C)Cc2cccnc2)n1 (stereo not given) the result was TcHisRS: 7.714%. For CCC(Cn1ccnc1)n1cnc2c(C)csc2c1=O (stereo not given) the result was Toxoplasma: -18.42%; TcHisRS: 1.98%. [H][C@@]12COC[C@]1(C(=O)NCc1cccs1)CN(Cc1cnn(C)c1)C2 gave Toxoplasma: -9.358%. With [H][C@@]12CS(=O)(=O)C[C@]1([H])N(C(=O)Nc1ccccc1Cl)CCN2C(C)=O the screen gave Toxoplasma: -1.444%. Result for O=C(NC1CC(F)(F)C1)[C@]12COC[C@H]1CN(Cc1ccsc1)C2 was TcHisRS: 9.278%. For CC(=O)NCC1CCN(Cc2nc(C3CC3)no2)CC1 the result was Toxoplasma: -2.135%; TcHisRS: 2.532%. CC(C)c1nc2n(n1)CC(Nc1ncnc3ccccc13)CC2 (stereo not given) read Toxoplasma: 2.835%; TcHisRS: 0%.

With CSc1ccc(C(=O)N(c2ccc(F)cn2)C2CCOCC2)o1 the screen gave Toxoplasma: 0.7551%; TcHisRS: 5.732%. Result for CN(Cc1cccnc1)C1CC2(CCN(c3ccccn3)CC2)C1 was TcHisRS: 7.104%. With CCOC(=O)c1nc(CN2CCC(NC(=O)C(C)C)CC2)cs1 the screen gave Toxoplasma: 2.58%; TcHisRS: -2.762%. Cc1cc(N2CCC(NC(C)Cc3ccsc3)CC2)nc(C)n1 (stereo not given) read Toxoplasma: -13.57%; TcHisRS: 6.173%. CCCc1nnc(N2CCC3(CC2)CC(=O)NC(=O)C3)o1 read Toxoplasma: 6.153%; TcHisRS: 5.6%. Result for Cc1nc(C)n(CC2CN(CCc3ccncc3)CCO2)n1 (stereo not given) was Toxoplasma: -4.269%; TcHisRS: 0%. Cc1cc(=O)[nH]c(=O)n1COCCOCc1ccccc1 read TcHisRS: 11.88%.

CN(Cc1ccc(Br)o1)C(=O)Nc1cccnc1 gave Toxoplasma: -0.1775%; TcHisRS: 2.717%. Result for c1cnnc(N2CCCC2CNCCc2cccs2)c1 (stereo not given) was Toxoplasma: -10.36%; TcHisRS: 4.255%. O=C(c1ccncc1)N1CCOC2(CCCN(c3nncs3)C2)C1 (stereo not given) read TcHisRS: 3.315%. Result for Cc1cc(CN(C)C(=O)c2ccc(F)c(C(F)(F)F)c2)no1 was Toxoplasma: 3.774%; TcHisRS: 2.26%. Cc1cc(C(=O)N2CCn3cc(CN(C)C)nc3C2)no1 gave Toxoplasma: -18.42%; TcHisRS: 8.824%. Cc1nc(C)c(Cc2nc(C3CC3)n[nH]2)c(=O)[nH]1 gave Toxoplasma: 19.25%; TcHisRS: -1.176%. [H][C@@]12CN(c3cc(OC)ncn3)C[C@H](C(=O)N3CCCC3)[C@]1([H])CCO2 read Toxoplasma: -28.62%.

The first 2 entries again:

structure,Toxoplasma,TcHisRS
O=C(O)C(F)(F)F.[H][C@@]12OCCC[C@]1([H])N(C(=O)c1cccn1C)C[C@H]2OCc1ccncc1,96.07,-
[H][C@]12CC[C@]([H])(CN(Cc3coc(C)n3)C1)N(CC=C(C)C)C2,4.793,-